Paper PMC3602193
Results are given in words; binding and its absence hold for the method and conditions named. In cells and extracts the contact can be indirect. Some results given as binding are weak or reduced against the parent protein; the word gives no strength. Where a sequence is shown, tags or fusion partners need not be part of it.

Sequences of proteins named here, by UniProt entry; tags and fusion partners are left off.
UniProt Q8WUM4: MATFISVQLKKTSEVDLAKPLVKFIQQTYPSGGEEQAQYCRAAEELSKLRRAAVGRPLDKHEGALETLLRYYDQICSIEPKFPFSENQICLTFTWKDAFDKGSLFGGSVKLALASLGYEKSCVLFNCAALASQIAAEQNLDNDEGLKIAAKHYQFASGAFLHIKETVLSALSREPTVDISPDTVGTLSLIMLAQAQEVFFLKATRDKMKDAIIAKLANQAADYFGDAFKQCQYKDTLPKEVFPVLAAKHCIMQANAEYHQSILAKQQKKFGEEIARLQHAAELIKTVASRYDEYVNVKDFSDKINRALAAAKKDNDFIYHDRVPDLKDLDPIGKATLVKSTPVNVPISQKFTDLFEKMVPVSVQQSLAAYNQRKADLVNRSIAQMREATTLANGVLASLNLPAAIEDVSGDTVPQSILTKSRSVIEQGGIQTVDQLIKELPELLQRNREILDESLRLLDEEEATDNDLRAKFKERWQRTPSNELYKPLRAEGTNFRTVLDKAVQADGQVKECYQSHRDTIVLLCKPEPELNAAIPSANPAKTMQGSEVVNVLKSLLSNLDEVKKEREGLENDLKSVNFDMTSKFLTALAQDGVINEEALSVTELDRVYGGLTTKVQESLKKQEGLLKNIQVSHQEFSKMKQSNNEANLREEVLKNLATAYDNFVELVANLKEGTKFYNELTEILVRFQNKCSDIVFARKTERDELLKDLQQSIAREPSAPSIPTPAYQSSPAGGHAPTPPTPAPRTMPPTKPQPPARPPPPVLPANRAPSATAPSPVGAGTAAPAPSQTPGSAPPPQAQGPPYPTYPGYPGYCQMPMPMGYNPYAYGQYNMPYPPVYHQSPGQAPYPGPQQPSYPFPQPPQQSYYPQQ

Tests used:
[1] = target: HA-Alix, full-length human Alix with N-terminal HA tag (human) (UniProt Q8WUM4); assay: co-IP; 293 T cells co-transfected with HA-tagged Alix and either Myc-tagged C or Flag-tagged Chmp4b; lysates 48 h later; anti-HA immunoprecipitation; Western blot
[2] = target: HA-Alix, full-length human Alix with N-terminal HA tag (human) (UniProt Q8WUM4); assay: co-IP; 293 T cells co-transfected with Myc-tagged C, Flag-tagged Chmp4b and HA-tagged Alix all together; lysates 48 h later; anti-HA immunoprecipitation; Western blot

B1: Flag-Chmp4b, human Chmp4b with N-terminal Flag tag (protein, UniProt Q9H444 1-224)
chain: MSVFGKLFGAGGGKAGKGGPTPQEAIQRLRDTEEMLSKKQEFLEKKIEQELTAAKKHGTKNKRAALQALKRKKRYEKQLAQIDGTLSTIEFQREALENANTNTEVLKNMGYAAKAMKAAHDNMDIDKVDELMQDIADQQELAEEISTAISKPVGFGEEFDEDELMAELEELEQEELDKNLLEISGPETVPLPNVPSIALPSKPAKKKEEEDDDMKELENWAGSM
Which results are given for B1?
binding [1]: binds; binding [2]: binds
